Source: the supplement of paper PMC10849652
This is one part of the list.

By UniProt entry, the sequences of proteins in these tests, tags left out. Where a name states a change or a piece, a line headed by the entry shows the natural chain unless it says otherwise.
UniProt Q15022: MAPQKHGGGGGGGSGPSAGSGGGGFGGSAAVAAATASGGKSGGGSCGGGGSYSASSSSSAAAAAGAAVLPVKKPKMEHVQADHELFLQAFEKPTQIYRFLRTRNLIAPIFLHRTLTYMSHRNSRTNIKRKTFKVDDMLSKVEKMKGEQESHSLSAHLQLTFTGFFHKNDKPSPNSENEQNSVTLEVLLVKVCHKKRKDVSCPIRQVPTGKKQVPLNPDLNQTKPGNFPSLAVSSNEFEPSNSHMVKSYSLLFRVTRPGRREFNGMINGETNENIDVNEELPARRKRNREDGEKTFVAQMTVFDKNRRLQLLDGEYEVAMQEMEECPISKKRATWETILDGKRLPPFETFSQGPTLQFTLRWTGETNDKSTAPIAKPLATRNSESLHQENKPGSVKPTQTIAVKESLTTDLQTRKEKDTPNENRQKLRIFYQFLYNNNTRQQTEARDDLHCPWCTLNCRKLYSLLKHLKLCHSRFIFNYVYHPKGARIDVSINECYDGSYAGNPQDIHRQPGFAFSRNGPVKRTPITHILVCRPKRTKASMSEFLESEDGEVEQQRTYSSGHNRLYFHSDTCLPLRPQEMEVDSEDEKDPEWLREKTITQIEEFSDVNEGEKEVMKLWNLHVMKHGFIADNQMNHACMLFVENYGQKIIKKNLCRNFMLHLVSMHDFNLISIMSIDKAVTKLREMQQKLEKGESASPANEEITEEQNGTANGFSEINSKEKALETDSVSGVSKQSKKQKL
UniProt O14662: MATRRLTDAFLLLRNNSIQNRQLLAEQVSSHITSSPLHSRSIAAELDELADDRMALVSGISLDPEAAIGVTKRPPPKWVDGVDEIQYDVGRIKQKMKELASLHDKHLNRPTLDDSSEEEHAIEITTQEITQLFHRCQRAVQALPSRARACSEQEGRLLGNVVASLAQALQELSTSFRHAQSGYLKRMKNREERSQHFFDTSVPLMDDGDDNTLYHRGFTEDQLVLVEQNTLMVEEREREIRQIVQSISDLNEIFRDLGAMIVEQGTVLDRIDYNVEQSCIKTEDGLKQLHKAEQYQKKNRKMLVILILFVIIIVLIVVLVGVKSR
UniProt B4DR80: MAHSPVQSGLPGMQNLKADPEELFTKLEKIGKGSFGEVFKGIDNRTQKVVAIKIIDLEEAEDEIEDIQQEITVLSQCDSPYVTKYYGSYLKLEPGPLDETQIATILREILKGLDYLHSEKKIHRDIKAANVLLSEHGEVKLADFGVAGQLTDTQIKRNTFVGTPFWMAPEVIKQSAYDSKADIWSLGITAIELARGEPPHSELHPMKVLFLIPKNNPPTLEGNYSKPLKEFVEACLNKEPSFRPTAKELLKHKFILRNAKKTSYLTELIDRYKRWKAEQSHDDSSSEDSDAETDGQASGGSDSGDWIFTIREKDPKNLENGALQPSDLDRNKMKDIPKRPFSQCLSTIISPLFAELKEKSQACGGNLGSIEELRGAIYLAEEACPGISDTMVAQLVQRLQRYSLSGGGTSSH
UniProt P08247, whole entry, looked up: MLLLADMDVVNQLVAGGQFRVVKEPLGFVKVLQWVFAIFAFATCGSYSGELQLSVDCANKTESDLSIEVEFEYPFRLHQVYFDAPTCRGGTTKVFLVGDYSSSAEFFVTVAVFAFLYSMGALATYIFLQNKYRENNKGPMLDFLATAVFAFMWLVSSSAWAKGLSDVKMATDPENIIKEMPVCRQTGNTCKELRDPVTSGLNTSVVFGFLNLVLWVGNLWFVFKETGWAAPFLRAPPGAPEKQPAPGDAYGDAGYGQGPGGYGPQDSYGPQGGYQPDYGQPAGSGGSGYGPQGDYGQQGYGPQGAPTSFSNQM
UniProt P46977: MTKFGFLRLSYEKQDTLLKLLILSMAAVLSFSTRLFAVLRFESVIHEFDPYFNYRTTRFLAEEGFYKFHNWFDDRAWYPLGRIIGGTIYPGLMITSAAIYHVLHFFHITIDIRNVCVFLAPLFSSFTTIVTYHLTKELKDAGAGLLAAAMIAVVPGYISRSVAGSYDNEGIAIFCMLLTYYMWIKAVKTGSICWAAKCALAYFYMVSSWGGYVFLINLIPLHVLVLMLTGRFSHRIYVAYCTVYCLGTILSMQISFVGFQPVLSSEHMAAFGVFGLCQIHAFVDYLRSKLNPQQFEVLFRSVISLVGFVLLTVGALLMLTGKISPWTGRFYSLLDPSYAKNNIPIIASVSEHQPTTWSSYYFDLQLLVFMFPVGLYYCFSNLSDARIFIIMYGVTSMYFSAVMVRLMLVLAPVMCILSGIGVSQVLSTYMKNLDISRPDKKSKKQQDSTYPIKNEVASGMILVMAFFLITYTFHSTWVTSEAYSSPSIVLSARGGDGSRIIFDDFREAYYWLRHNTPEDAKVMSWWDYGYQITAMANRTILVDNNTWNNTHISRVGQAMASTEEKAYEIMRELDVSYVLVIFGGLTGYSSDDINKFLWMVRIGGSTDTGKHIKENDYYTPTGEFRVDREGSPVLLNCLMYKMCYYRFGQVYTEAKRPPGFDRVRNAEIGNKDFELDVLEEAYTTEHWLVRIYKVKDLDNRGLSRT
UniProt Q9ULQ0: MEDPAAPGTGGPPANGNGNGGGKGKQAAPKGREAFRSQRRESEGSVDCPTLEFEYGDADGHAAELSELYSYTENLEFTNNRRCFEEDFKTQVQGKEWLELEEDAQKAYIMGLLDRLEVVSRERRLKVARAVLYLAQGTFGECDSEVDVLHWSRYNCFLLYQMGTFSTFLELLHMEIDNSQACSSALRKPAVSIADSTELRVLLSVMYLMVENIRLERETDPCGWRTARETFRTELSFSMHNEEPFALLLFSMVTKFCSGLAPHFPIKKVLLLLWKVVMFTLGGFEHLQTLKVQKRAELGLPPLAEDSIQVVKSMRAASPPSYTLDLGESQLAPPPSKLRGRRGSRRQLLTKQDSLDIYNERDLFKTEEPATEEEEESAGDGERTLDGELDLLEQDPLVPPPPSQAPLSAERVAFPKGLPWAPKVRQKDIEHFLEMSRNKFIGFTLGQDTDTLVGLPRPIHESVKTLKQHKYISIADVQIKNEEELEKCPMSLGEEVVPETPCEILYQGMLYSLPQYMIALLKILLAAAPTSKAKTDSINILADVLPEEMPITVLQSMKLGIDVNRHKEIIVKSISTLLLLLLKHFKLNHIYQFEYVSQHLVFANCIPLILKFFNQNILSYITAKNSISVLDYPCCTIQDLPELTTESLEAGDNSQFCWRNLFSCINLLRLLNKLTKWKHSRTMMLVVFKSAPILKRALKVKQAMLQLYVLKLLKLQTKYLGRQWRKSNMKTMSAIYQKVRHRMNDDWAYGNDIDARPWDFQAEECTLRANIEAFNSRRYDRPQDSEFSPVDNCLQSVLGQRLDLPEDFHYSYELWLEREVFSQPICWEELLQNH
UniProt Q13188: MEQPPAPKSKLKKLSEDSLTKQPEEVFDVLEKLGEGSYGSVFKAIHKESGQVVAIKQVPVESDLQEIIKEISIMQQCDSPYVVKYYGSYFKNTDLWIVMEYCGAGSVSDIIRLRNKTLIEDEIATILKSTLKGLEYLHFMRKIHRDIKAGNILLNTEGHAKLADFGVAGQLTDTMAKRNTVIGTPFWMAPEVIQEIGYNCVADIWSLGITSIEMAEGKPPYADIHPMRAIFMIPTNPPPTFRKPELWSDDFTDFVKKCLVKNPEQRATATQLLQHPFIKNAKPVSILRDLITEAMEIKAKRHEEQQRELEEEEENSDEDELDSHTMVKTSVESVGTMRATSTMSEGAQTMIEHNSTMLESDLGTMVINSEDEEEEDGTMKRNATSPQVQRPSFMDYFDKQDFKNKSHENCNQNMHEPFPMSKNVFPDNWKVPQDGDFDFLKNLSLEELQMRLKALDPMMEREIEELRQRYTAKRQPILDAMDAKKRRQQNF
UniProt Q92804: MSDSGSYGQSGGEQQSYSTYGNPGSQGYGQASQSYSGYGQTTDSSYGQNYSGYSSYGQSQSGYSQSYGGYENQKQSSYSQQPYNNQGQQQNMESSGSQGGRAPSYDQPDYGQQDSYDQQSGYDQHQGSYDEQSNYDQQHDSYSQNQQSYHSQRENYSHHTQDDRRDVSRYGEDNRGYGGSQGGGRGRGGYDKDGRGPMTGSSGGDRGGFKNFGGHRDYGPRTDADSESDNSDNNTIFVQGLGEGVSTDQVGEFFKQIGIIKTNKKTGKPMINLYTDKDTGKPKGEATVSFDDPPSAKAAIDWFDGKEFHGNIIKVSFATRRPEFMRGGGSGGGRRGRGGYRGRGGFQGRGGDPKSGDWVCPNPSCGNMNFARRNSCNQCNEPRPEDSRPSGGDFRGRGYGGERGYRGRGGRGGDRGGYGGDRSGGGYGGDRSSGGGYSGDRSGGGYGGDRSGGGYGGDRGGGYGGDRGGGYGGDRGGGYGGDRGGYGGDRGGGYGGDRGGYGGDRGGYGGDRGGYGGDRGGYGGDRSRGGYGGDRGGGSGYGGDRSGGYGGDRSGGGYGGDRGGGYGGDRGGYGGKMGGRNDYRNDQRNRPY

Experiments:
Test in all cases: log2 fold change, soluble protein after heating vs DMSO (PISA); higher = thermal stabilisation; K562 lysate, 10 uM; active = over 0.2 and 3.5 SD of the protein, either way, in both replicates (recomputed)
erlotinib = compound: C#Cc1cccc(Nc2ncnc3cc(OCCOC)c(OCCOC)cc23)c1 [erlotinib]
In short: (§1)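 K562 pellets were dounce-homogenised in PBS pH 7.4 containing 1 mM MgCl2, and the crude extract, at 1 mg/mL protein, was exposed to 10 μM compound for 30 min. Aliquots were heated for 3 min across 48°C-58°C, pooled, brought to 0.5% NP-40 at 4°C and spun at 21,000xg for 90 min, with the supernatant taken as soluble protein. TMTpro 16plex LC-MS/MS with equalised channel sums quantified that protein. Values are log-two fold changes in thermal stability relative to solvent controls, taken from duplicates.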

[1] = compound: C/C(=N\NC(=O)C1=CC(=CC=C1)S(=O)(=O)N2CCOCC2)/C3=C(C=CC(=C3)Cl)O
In short: as §1

[2] = compound: C1=CC(=CC=C1C2=NC3=C(N2)C=C(C=C3)C(=O)N)OC4=CC=C(C=C4)Cl
In short: as §1

[3] = compound: C1=CC2=C(C=CC(=C2)/C=C\3/C(=O)NC(=NCC4=CC=CS4)S3)N=C1
In short: as §1

[4] = compound: C1=CC2=NC=CN=C2C=C1/C=C/3\C(=O)NC(=O)S3
In short: as §1

[5] = compound: C1=CC=C(C=C1)C2=NC(=C(N2)C3=CC=NC=C3)C4=CC(=C(C=C4)Cl)O
In short: as §1

[6] = compound: C1=CC=C2C(=C1)C3=NNC4=CC=CC(=C43)C2=O
In short: as §1

[7] = compound: C1CCN(C1)C(=O)NC2=CC=CC(=C2)NC3=NC=C(C(=N3)NCCC4=CN=CN4)Br
In short: as §1

[8] = compound: C1CN(CCC1(CC2=CC=C(C=C2)Cl)N)C3=NC=NC4=C3C=CN4
In short: as §1

IRAK-1-4 Inhibitor I = compound: C1COCCN1CCN2C3=CC=CC=C3N=C2NC(=O)C4=CC(=CC=C4)[N+](=O)[O-] [IRAK-1-4 Inhibitor I]
In short: as §1

ibrutinib = compound: C=CC(=O)N1CCC[C@@H](n2nc(-c3ccc(Oc4ccccc4)cc3)c3c(N)ncnc32)C1 [ibrutinib]
In short: as §1

[9] = compound: CC(=O)c1cnc2ccc(-c3cc(Cl)c(O)c(Cl)c3)nc2c1N[C@H]1CC[C@H](CN(C)C)CC1
In short: as §1

ralimetinib = compound: CC(C)(C)Cn1c(N)nc2ccc(-c3[nH]c(C(C)(C)C)nc3-c3ccc(F)cc3)nc21 [ralimetinib]
In short: as §1

[10] = compound: CC(C)(O)CC(=O)NCCn1ccc2ncnc(Nc3ccc(Oc4cccc(C(F)(F)F)c4)c(Cl)c3)c21
In short: as §1

[11] = compound: CC(C)C1=C2N=C(C=C(N2N=C1)NCC3=CC=CC=C3)NCCCCCCN
In short: as §1

[12] = compound: CC1=C(C(CC(=O)N1)C2=CC=C(C=C2)C(F)(F)F)C(=O)NC3=C(C=C4C(=C3)C=NN4)F
In short: as §1

[13] = compound: CC1=C(C2=C(C=C1)C(=O)C3=CC=CC=C3N2CCCN)C
In short: as §1

[14] = compound: CC1=C(C=C(C=C1)NC(=O)C2=CC(=CC=C2)C(C)(C)C#N)NC3=CC4=C(C=C3)N=CN(C4=O)C
In short: as §1

[15] = compound: CC1=C(C=C(C=C1)NC(=O)C2=CC(=CC=C2)N(C)C)NC(=O)C3=CC=C(C=C3)O
In short: as §1

[16] = compound: CC1=CC=C(C=C1)SC2=C3C=C(SC3=CN=C2)C(=O)N
In short: as §1

SUZ12 (UniProt Q15022)
log2 fold change (erlotinib): inactive: 0.024
log2 fold change [1]: inactive: -0.077
log2 fold change [2]: inactive: -0.018
log2 fold change [3]: inactive: 0.007
log2 fold change [4]: inactive: 0.004
log2 fold change [5]: inactive: 0.034
log2 fold change [6]: inactive: -0.079
log2 fold change [7]: inactive: -0.038
log2 fold change [8]: inactive: -0.021
log2 fold change (IRAK-1-4 Inhibitor I): inactive: 0.02
log2 fold change (ibrutinib): inactive: -0.043
log2 fold change [9]: inactive: 0.013
log2 fold change (ralimetinib): inactive: 0.003
log2 fold change [10]: inactive: -0.036
log2 fold change [11]: inactive: 0.007
log2 fold change [12]: inactive: -0.023
log2 fold change [13]: inactive: -0.09
log2 fold change [14]: active: 0.289
log2 fold change [15]: inactive: 0.048
log2 fold change [16]: inactive: -0.01

STX16 isoform 2 (UniProt O14662)
log2 fold change (erlotinib): inactive: 0.092
log2 fold change [1]: inactive: 0.038
log2 fold change [2]: inactive: 0.011
log2 fold change [3]: inactive: -0.006
log2 fold change [4]: inactive: -0.018
log2 fold change [5]: inactive: -0.02
log2 fold change [6]: inactive: -0.024
log2 fold change [7]: inactive: -0.017
log2 fold change [8]: inactive: -0.004
log2 fold change (IRAK-1-4 Inhibitor I): inactive: 0.022
log2 fold change (ibrutinib): inactive: 0.007
log2 fold change [9]: inactive: 0.043
log2 fold change (ralimetinib): inactive: -0.009
log2 fold change [10]: inactive: -0.033
log2 fold change [11]: inactive: 0.079
log2 fold change [12]: inactive: 0.039
log2 fold change [13]: inactive: -0.031
log2 fold change [14]: inactive: 0.014
log2 fold change [15]: inactive: -0.055
log2 fold change [16]: inactive: -0.017

STK24 (UniProt B4DR80)
log2 fold change (erlotinib): inactive: 0.019
log2 fold change [1]: inactive: 0.02
log2 fold change [2]: inactive: 0.018
log2 fold change [3]: inactive: -0.04
log2 fold change [4]: inactive: -0.003
log2 fold change [5]: inactive: -0.004
log2 fold change [6]: inactive: 0.198
log2 fold change [7]: inactive: 0.045
log2 fold change [8]: inactive: 0.013
log2 fold change (IRAK-1-4 Inhibitor I): inactive: -0.007
log2 fold change (ibrutinib): inactive: 0.024
log2 fold change [9]: active: 0.218
log2 fold change (ralimetinib): inactive: 0.005
log2 fold change [10]: inactive: 0.024
log2 fold change [11]: inactive: 0.001
log2 fold change [12]: inactive: -0.019
log2 fold change [13]: inactive: -0.019
log2 fold change [14]: inactive: -0.018
log2 fold change [15]: inactive: -0.019
log2 fold change [16]: inactive: -0.018

SYP (UniProt P08247)
log2 fold change (erlotinib): inactive: -0.002
log2 fold change [1]: inactive: 0.044
log2 fold change [2]: inactive: 0.076
log2 fold change [3]: inactive: 0.051
log2 fold change [4]: inactive: 0.025
log2 fold change [5]: inactive: 0.004
log2 fold change [6]: inactive: 0.055
log2 fold change [7]: inactive: 0.105
log2 fold change [8]: inactive: 0.064
log2 fold change (IRAK-1-4 Inhibitor I): inactive: 0.071
log2 fold change (ibrutinib): inactive: -0.119
log2 fold change [9]: inactive: 0.067
log2 fold change (ralimetinib): inactive: 0.075
log2 fold change [10]: inactive: -0.041
log2 fold change [11]: inactive: 0.144
log2 fold change [12]: inactive: 0.079
log2 fold change [13]: inactive: -0.011
log2 fold change [14]: inactive: 0.037
log2 fold change [15]: inactive: -0.018
log2 fold change [16]: inactive: -0.02

STT3A (UniProt P46977)
log2 fold change (erlotinib): inactive: -0.058
log2 fold change [1]: inactive: -0.059
log2 fold change [2]: inactive: -0.097
log2 fold change [3]: inactive: 0.009
log2 fold change [4]: inactive: -0.003
log2 fold change [5]: inactive: -0.047
log2 fold change [6]: inactive: -0.007
log2 fold change [7]: inactive: -0.044
log2 fold change [8]: inactive: -0.029
log2 fold change (IRAK-1-4 Inhibitor I): inactive: -0.016
log2 fold change (ibrutinib): inactive: -0.024
log2 fold change [9]: inactive: 0.009
log2 fold change (ralimetinib): inactive: 0.015
log2 fold change [10]: inactive: -0.015
log2 fold change [11]: inactive: -0.032
log2 fold change [12]: inactive: 0.024
log2 fold change [13]: inactive: 0.02
log2 fold change [14]: inactive: -0.014
log2 fold change [15]: inactive: -0.007
log2 fold change [16]: inactive: 0.026

STRIP2 (UniProt Q9ULQ0)
log2 fold change (erlotinib): inactive: 0.057
log2 fold change [1]: inactive: -0.009
log2 fold change [2]: inactive: 0.007
log2 fold change [3]: inactive: 0.02
log2 fold change [4]: inactive: 0.003
log2 fold change [5]: inactive: -0.004
log2 fold change [6]: inactive: -0.015
log2 fold change [7]: inactive: 0.008
log2 fold change [8]: inactive: 0.015
log2 fold change (IRAK-1-4 Inhibitor I): inactive: 0.027
log2 fold change (ibrutinib): inactive: 0.051
log2 fold change [9]: inactive: 0.021
log2 fold change (ralimetinib): inactive: 0.054
log2 fold change [10]: inactive: -0.045
log2 fold change [11]: inactive: 0.009
log2 fold change [12]: inactive: -0.011
log2 fold change [13]: inactive: -0.005
log2 fold change [14]: inactive: 0.021
log2 fold change [15]: inactive: 0.087
log2 fold change [16]: inactive: 0.007

STK3 isoform 2 (UniProt Q13188)
log2 fold change (erlotinib): inactive: -0.009
log2 fold change [1]: inactive: -0.1
log2 fold change [2]: inactive: 0.012
log2 fold change [3]: inactive: -0.07
log2 fold change [4]: inactive: -0.001
log2 fold change [5]: inactive: 0.016
log2 fold change [6]: inactive: 0.181
log2 fold change [7]: inactive: 0.157
log2 fold change [8]: inactive: 0.031
log2 fold change (IRAK-1-4 Inhibitor I): inactive: -0.005
log2 fold change (ibrutinib): inactive: 0.11
log2 fold change [9]: inactive: 0.364
log2 fold change (ralimetinib): inactive: -0.001
log2 fold change [10]: inactive: 0.037
log2 fold change [11]: inactive: 0.026
log2 fold change [12]: inactive: -0.005
log2 fold change [13]: inactive: 0
log2 fold change [14]: inactive: -0.025
log2 fold change [15]: inactive: 0.016
log2 fold change [16]: inactive: -0.073

TAF15 (UniProt Q92804)
log2 fold change (erlotinib): inactive: -0.055
log2 fold change [1]: inactive: 0.005
log2 fold change [2]: inactive: 0.043
log2 fold change [3]: inactive: 0.004
log2 fold change [4]: inactive: -0.022
log2 fold change [5]: inactive: 0.02
log2 fold change [6]: inactive: 0.007
log2 fold change [7]: inactive: 0.04
log2 fold change [8]: inactive: 0.009
log2 fold change (IRAK-1-4 Inhibitor I): inactive: 0.016
log2 fold change (ibrutinib): inactive: 0.049
log2 fold change [9]: inactive: -0.189
log2 fold change (ralimetinib): inactive: -0.002
log2 fold change [10]: inactive: 0.022
log2 fold change [11]: inactive: -0.008
log2 fold change [12]: inactive: -0.006
log2 fold change [13]: inactive: -0.002
log2 fold change [14]: inactive: 0.026
log2 fold change [15]: inactive: 0.043
log2 fold change [16]: inactive: -0.004
